The target in the assay is T1, GSG2, Histone H3 associated protein kinase (Haspin) (human (endogenous in B-CPAP)) (UniProt Q8TF76).
T1 sequence: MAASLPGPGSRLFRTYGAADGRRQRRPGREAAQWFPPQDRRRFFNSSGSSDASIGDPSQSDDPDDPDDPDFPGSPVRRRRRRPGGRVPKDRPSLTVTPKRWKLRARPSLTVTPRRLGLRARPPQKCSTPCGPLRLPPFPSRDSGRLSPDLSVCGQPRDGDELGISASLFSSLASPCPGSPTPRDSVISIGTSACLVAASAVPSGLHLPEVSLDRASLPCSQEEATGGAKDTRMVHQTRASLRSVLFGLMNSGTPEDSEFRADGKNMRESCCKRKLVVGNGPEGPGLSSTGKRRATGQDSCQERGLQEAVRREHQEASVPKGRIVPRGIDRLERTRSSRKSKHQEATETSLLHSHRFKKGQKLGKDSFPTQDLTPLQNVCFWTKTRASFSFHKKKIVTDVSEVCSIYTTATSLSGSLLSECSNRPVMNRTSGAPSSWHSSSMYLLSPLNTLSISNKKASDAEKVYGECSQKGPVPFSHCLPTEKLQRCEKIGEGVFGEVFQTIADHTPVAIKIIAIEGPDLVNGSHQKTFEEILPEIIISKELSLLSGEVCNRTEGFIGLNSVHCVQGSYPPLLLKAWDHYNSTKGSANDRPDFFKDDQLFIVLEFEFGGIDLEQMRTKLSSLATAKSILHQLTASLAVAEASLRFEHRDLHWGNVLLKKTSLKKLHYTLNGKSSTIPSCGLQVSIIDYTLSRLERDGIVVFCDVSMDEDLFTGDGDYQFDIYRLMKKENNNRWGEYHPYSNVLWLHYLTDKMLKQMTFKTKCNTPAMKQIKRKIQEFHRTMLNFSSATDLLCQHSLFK
Nature of the assay: co-IP; proteins from B-CPAP cells immunoprecipitated with GSG2 and IgG antibodies; immunoblot with antibodies to GSG2 and SMURF1; endogenous proteins.

Chains of the proteins cited; added tags and fusions are not shown.
UniProt Q9HCE7: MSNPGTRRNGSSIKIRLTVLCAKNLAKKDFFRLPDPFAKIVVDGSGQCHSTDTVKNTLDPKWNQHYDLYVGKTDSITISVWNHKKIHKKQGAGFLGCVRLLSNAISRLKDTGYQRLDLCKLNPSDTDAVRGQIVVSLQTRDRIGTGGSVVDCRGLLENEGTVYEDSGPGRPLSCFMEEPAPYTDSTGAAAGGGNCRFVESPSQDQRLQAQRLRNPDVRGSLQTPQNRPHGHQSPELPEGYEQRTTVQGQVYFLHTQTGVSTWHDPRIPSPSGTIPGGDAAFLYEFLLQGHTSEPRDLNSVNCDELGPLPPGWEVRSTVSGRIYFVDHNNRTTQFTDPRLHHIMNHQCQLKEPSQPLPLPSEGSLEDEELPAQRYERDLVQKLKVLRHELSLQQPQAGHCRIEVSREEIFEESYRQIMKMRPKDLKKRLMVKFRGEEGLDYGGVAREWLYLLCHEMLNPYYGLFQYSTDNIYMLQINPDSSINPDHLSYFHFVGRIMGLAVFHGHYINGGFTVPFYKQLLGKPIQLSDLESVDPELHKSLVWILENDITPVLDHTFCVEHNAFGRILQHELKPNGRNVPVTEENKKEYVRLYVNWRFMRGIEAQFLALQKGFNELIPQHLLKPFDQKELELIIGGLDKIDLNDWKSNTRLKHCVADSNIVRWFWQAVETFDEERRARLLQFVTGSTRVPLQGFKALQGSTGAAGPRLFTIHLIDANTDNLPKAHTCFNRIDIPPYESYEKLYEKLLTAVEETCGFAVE

These are yes or no findings as the source states them, for the method shown. Binding seen in cells or lysates may run through a third protein. Some results given as binding are weak or reduced against the parent protein; the word gives no strength. Where a sequence is shown, tags or fusion partners need not be part of it.

Take SMURF1 (from UniProt Q9HCE7 1-757): the binding result is listed as “binds”.
